Data reported in US20140370521A1, “IDENTIFICATION OF TWO NOVEL BIOMARKERS FOR NIEMANN-PICK DISEASE TYPE C” (The USA , as Represented by the Secretary, Department of …, priority 2011, published 2014).
The expression values are mRNA levels of the gene; the protein chain is shown to identify it.

B1: Cfh (protein, UniProt P06909 19-1234, looked up)
Complement factor H: EDCKGPPPRENSEILSGSWSEQLYPEGTQATYKCRPGYRTLGTIVKVCKNGKWVASNPSRICRKKPCGHPGDTPFGSFRLAVGSQFEFGAKVVYTCDDGYQLLGEIDYRECGADGWINDIPLCEVVKCLPVTELENGRIVSGAAETDQEYYFGQVVRFECNSGFKIEGHKEIHCSENGLWSNEKPRCVEILCTPPRVENGDGINVKPVYKENERYHYKCKHGYVPKERGDAVCTGSGWSSQPFCEEKRCSPPYILNGIYTPHRIIHRSDDEIRYECNYGFYPVTGSTVSKCTPTGWIPVPRCTLKPCEFPQFKYGRLYYEESLRPNFPVSIGNKYSYKCDNGFSPPSGYSWDYLRCTAQGWEPEVPCVRKCVFHYVENGDSAYWEKVYVQGQSLKVQCYNGYSLQNGQDTMTCTENGWSPPPKCIRIKTCSASDIHIDNGFLSESSSIYALNRETSYRCKQGYVTNTGEISGSITCLQNGWSPQPSCIKSCDMPVFENSITKNTRTWFKLNDKLDYECLVGFENEYKHTKGSITCTYYGWSDTPSCYERECSVPTLDRKLVVSPRKEKYRVGDLLEFSCHSGHRVGPDSVQCYHFGWSPGFPTCKGQVASCAPPLEILNGEINGAKKVEYSHGEVVKYDCKPRFLLKGPNKIQCVDGNWTTLPVCIEEERTCGDIPELEHGSAKCSVPPYHHGDSVEFICEENFTMIGHGSVSCISGKWTQLPKCVATDQLEKCRVLKSTGIEAIKPKLTEFTHNSTMDYKCRDKQEYERSICINGKWDPEPNCTSKTSCPPPPQIPNTQVIETTVKYLDGEKLSVLCQDNYLTQDSEEMVCKDGRWQSLPRCIEKIPCSQPPTIEHGSINLPRSSEERRDSIESSSHEHGTTFSYVCDDGFRIPEENRITCYMGKWSTPPRCVGLPCGPPPSIPLGTVSLELESYQHGEEVTYHCSTGFGIDGPAFIICEGGKWSDPPKCIKTDCDVLPTVKNAIIRGKSKKSYRTGEQVTFRCQSPYQMNGSDTVTCVNSRWIGQPVCKDNSCVDPPHVPNATIVTRTKNKYLHGDRVRYECNKPLELFGQVEVMCENGIWTEKPKCRDSTGKCGPPPPIDNGDITSLSLPVYEPLSSVEYQCQKYYLLKGKKTITCRNGKWSEPPTCLHACVIPENIMESHNIILKWRHTEKIYSHSGEDIEFGCKYGYYKARDSPPFRTKCINGTINYPTCV
B2: Afm (protein, UniProt O89020 22-608, looked up)
Afamin: LPTKPQDVDHFNATQKFIDENTTYLAIIAFSQYVQEASFDEVETLVKVMLDYRDRCWADNTLPECSKTANDAIQDMLCDMEGLPQKHNFSHCCGKAGFPRRLCFFYNKKANVGFLPPFPTLDPEEKCQAYKNNSESFLHLYMYEVARRNPFVFAPVLLAVAAWFEEAATTCCEQQQKATCFQAKAAPITQYLKASSSYQRNVCGALIKFGPKVLNSINVAVFSKKFPKIGFKDLTTLLEDVSSMYEGCCEGDVVHCIRSQSQVVNHICSKQDSISSKIKVCCEKKTLEREACIINANKDDRPEGLSLREAKFTESENVCQERDSDPDKFFAEFIYEYSRRHPDLSTPELLRITKVYMDFLEDCCSRENPAGCYRHVEDKFNETTQRSLAMVQQECKQFQELGKDTLQRHFLVKFTKAAPQLPMEELVSLSKEMVAALTTCCTLSDEFACVDNLADLVLGELCGVNTNRTINPAVDHCCKTDFAFRRHCFEHLKADTTYELPSVSALVSALHTDWCQPRKEDLQNKKHRFLVNLVKWMPGITDEEWLCLFTKFTAAREECSEVQEPESCFSPESSKTGDESQATEKQR
B3: Il1b (protein, UniProt P10749 118-269, looked up)
Interleukin-1 beta: VPIRQLHYRLRDEQQKSLVLSDPYELKALHLNGQNINQQVIFSMSFVQGEPSNDKIPVALGLKGKNLYLSCVMKDGTPTLQLESVDPKQYPKKKMEKRFVFNKIEVKSKVEFESAEFPNWYISTSQAEHKPVFLGNNSGQDIIDFTMESVSS
B4: Cd48 (protein, UniProt P18181 23-217, looked up)
CD48 antigen: FQGHSIPDINATTGSNVTLKIHKDPLGPYKRITWLHTKNQKILEYNYNSTKTIFESEFKGRVYLEENNGALHISNVRKEDKGTYYMRVLRETENELKITLEVFDPVPKPSIEINKTEASTDSCHLRLSCEVKDQHVDYTWYESSGPFPKKSPGYVLDLIVTPQNKSTFYTCQVSNPVSSKNDTVYFTLPCDLARS
B5: Bgn (protein, UniProt P28653 38-369, looked up)
Biglycan: DEEASGSDTTSGVPDLDSVTPTFSAMCPFGCHCHLRVVQCSDLGLKTVPKEISPDTTLLDLQNNDISELRKDDFKGLQHLYALVLVNNKISKIHEKAFSPLRKLQKLYISKNHLVEIPPNLPSSLVELRIHDNRIRKVPKGVFSGLRNMNCIEMGGNPLENSGFEPGAFDGLKLNYLRISEAKLTGIPKDLPETLNELHLDHNKIQAIELEDLLRYSKLYRLGLGHNQIRMIENGSLSFLPTLRELHLDNNKLSRVPAGLPDLKLLQVVYLHSNNITKVGINDFCPMGFGVKRAYYNGISLFNNPVPYWEVQPATFRCVTDRLAIQFGNYKK
B6: Frzb (protein, UniProt P97401 33-323, looked up)
Secreted frizzled-related …: AACEPVRIPLCKSLPWNMTKMPNHLHHSTQANAILAMEQFEGLLGTHCSPDLLFFLCAMYAPICTIDFQHEPIKPCKSVCERARQGCEPILIKYRHSWPESLACDELPVYDRGVCISPEAIVTADGADFPMDSSTGHCRGASSERCKCKPVRATQKTYFRNNYNYVIRAKVKEVKMKCHDVTAVVEVKEILKASLVNIPRDTVNLYTTSGCLCPPLTVNEEYVIMGYEDEERSRLLLVEGSIAEKWKDRLGKKVKRWDMKLRHLGLGKTDASDSTQNQKSGRNSNPRPARS
B7: Ccl3 (protein, UniProt P10855 24-92, looked up)
C-C motif chemokine 3: APYGADTPTACCFSYSRKIPRQFIVDYFETSSLCSQPGVIFLTKRNRQICADSKETWVQEYITDLELNA
B8: Cd44 (protein, UniProt P15379 23-778, looked up)
CD44 antigen: QIDLNVTCRYAGVFHVEKNGRYSISRTEAADLCQAFNSTLPTMDQMKLALSKGFETCRYGFIEGNVVIPRIHPNAICAANHTGVYILVTSNTSHYDTYCFNASAPPEEDCTSVTDLPNSFDGPVTITIVNRDGTRYSKKGEYRTHQEDIDASNIIDDDVSSGSTIEKSTPEGYILHTYLPTEQPTGDQDDSFFIRSTLATIASTVHSKSHAAAQKQNNWIWSWFGNSQSTTQTQEPTTSATTALMTTPETPPKRQEAQNWFSWLFQPSESKSHLHTTTKMPGTESNTNPTGWEPNEENEDETDTYPSFSGSGIDDDEDFISSTIATTPRVSARTEDNQDWTQWKPNHSNPEVLLQTTTRMADIDRISTSAHGENWTPEPQPPFNNHEYQDEEETPHATSTTPNSTAEAAATQQETWFQNGWQGKNPPTPSEDSHVTEGTTASAHNNHPSQRITTQSQEDVSWTDFFDPISHPMGQGHQTESKDTDSSHSTTLQPTAAPNTHLVEDLNRTGPLSVTTPQSHSQNFSTLHGEPEEDENYPTTSILPSSTKSSAKDARRGGSLPTDTTTSVEGYTFQYPDTMENGTLFPVTPAKTEVFGETEVTLATDSNVNVDGSLPGDRDSSKDSRGSSRTVTHGSELAGHSSANQDSGVTTTSGPMRRPQIPEWLIILASLLALALILAVCIAVNSRRRCGQKKKLVINGGNGTVEDRKPSELNGEASKSQEMVHLVNKEPSETPDQCMTADETRNLQSVDMKIGV
B9: Il18bp (protein, UniProt Q9Z0M9 29-193, looked up)
Interleukin-18-binding protein: TSAPQTTATVLTGSSKDPCSSWSPAVPTKQYPALDVIWPEKEVPLNGTLTLSCTACSRFPYFSILYWLGNGSFIEHLPGRLKEGHTSREHRNTSTWLHRALVLEELSPTLRSTNFSCLFVDPGQVAQYHIILAQLWDGLKTAPSPSQETLSSHSPVSRSAGPGVA
B10: Ccl6 (protein, UniProt P27784 22-116, looked up)
C-C motif chemokine 6: GLIQEMEKEDRRYNPPIIHQGFQDTSSDCCFSYATQIPCKRFIYYFPTSGGCIKPGIIFISRRGTQVCADPSDRRVQRCLSTLKQGPRSGNKVIA

These molecules were tested on Npc1-/- mouse liver (assay: Liver gene expression microarray, Npc1-/- versus control mice (Affymetrix Mouse GeneChip 1.0 ST)). Conditions: 1 week of age, negative = lower in Npc1−/−.

Molecule	FC (fold-change of expression between Npc1−/− and control mice)
B1	−1.33
B2	−1.24
B3	−1.65

Same assay, conditions: 3 weeks of age, negative = lower in Npc1−/−

Molecule	FC (fold-change of expression between Npc1−/− and control mice)
B1	−1.55
B4	1.63
B5	1.34
B2	−1.35
B6	1.31
B7	1.70
B8	1.48
B9	1.43
B10	1.57

Same assay, conditions: 5 weeks of age, negative = lower in Npc1−/−

Molecule	FC (fold-change of expression between Npc1−/− and control mice)
B4	1.90
B5	1.35
B6	1.51
B7	2.30
B8	1.63
B9	1.39
B3	−1.32
B10	1.83

Same assay, conditions: 7 weeks of age, negative = lower in Npc1−/−

Molecule	FC (fold-change of expression between Npc1−/− and control mice)
B1	−1.66
B4	2.27
B5	1.55
B2	−1.72
B6	1.90
B7	2.04
B8	2.64
B9	1.71
B3	−1.41
B10	2.42

Same assay, conditions: 11 weeks of age, negative = lower in Npc1−/−

Molecule	FC (fold-change of expression between Npc1−/− and control mice)
B1	−2.40
B4	3.32
B5	1.63
B2	−3.97
B6	2.27
B7	5.09
B8	3.22
B9	2.19
B3	−1.46
B10	3.83

Same assay, conditions: head prints "weeks" (column between 7 weeks and 11 weeks), negative = lower in Npc1−/−

Molecule	FC (fold-change of expression between Npc1−/− and control mice)
B1	−1.35
B4	3.21
B5	1.48
B2	−1.72
B6	2.19
B7	2.55
B8	2.33
B9	1.82
B3	−1.49
B10	2.65
